# Laboratory results reported in PubChem BioAssay AID2551 (National Center for Advancing Translational Sciences (NCATS), 2010).
# By UniProt entry, the sequences of proteins in these tests, tags left out. Where a name states a change or a piece, a line headed by the entry shows the natural chain unless it says otherwise.
# UniProt P51450: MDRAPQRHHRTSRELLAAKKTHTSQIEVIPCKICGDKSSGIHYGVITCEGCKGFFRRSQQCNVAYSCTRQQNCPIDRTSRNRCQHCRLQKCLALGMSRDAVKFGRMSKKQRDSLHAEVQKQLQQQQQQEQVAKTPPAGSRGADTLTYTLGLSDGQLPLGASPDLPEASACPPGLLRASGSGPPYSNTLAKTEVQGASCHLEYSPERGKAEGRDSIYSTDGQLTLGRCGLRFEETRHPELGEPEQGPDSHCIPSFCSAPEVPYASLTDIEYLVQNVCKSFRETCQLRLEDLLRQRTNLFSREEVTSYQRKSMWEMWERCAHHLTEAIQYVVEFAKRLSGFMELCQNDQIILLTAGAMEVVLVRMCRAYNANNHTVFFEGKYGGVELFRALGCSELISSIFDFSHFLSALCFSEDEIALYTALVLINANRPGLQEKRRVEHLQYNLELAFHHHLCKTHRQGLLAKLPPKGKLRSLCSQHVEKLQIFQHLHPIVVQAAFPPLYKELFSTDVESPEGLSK
# The campaign covered roughly 310,000 compounds. About 17,000 (5.5%) were called active. The shares of active, inactive and inconclusive entries below differ from those in the screen. Calls follow the shape of the dose curve; as a rule, active = well fitted inhibition curve with a large enough effect; inconclusive = small, poorly fitted or top-dose-only effect, or effect the other way; inactive = no such curve, though single readings can be large or run the other way. Where the call is inconclusive, the potency comes from a doubtful curve fit.
# Target: Nuclear receptor ROR-gamma (Mus musculus) (UniProt P51450)
# Assay: qHTS for inhibitors of ROR gamma transcriptional activity; also: nearly all actives have a fitted effect of over 60% in size
# Details: Drosophila S2 Gal4-RORgamma UAS-luciferase reporter, 20 h; series mostly up to 53.6 µM
# Method in brief: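 A Gal4/UAS one-hybrid system in insect cells: metallothionein-promoter Gal4–ROR gamma fusion plus Photinus luciferase reporter. Copper sulfate 700 uM final, 20 hr ambient incubation, luminescent detection after 10 min with reagent.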
# Potency is read from the fitted curve at half-maximal effect.
row,Structure (SMILES),Potency
1,Cc1ccc(N/N=C/c2c(O)cc(C)oc2=O)cc1,inactive
2,Cc1ccc(C)c(C(=O)CN2C(=O)c3ccccc3C2=O)c1,inactive
3,COc1ccc(S(=O)(=O)N2CCN(C(=O)c3ccc([N+](=O)[O-])o3)CC2)cc1,"inconclusive: 25.1 µM [inhibitor, partial curve, poor fit]"
4,O=C(Nc1cccc(-c2cnc3ccccc3n2)c1)c1ccccc1,"inconclusive: 22.4 µM [inhibitor, single point]"
5,CCCCn1c(=O)[nH]c(=O)c2c1nc(-c1ccccn1)n2CC,inactive
6,O=C(N/N=C/c1cccc([N+](=O)[O-])c1)c1c[nH]c2ccccc12,"inconclusive: 20 µM [activator, single point]"
7,CC(=O)[C@@H]1[C@@H]2C(=O)N(c3ccc(F)c(Cl)c3)C(=O)[C@@H]2C2c3ccccc3C=CN21 (stereo partly drawn),inactive
8,O=C(/C=C/c1ccc(Br)cc1)N1CCN(c2cccc(C(F)(F)F)c2)CC1,inactive
9,CC12CCC(C(=O)NCc3ccccc3Cl)(C(Br)C1=O)C2(C)C (stereo not drawn),"inconclusive: 0.794 µM [activator, full curve]"
10,CC(=O)c1sc(NC(=O)c2cnc(Cl)c(Cl)c2)nc1C,"inconclusive: 10 µM [activator, partial curve]"
11,COC(=O)C1=NN[C@H](C(=O)OC)[C@H]1c1ccccc1,inactive
12,O=C(O)CCCCc1nc2ccccc2s1,"inconclusive: 25.1 µM [inhibitor, single point]"
13,CCOC(=O)c1c(NC(=O)CS(=O)(=O)c2cn(CC)c3ccccc23)sc2c1CCCC2,inactive
14,O=C(CSCc1ccccc1)Nc1ccc(F)cc1F,"inconclusive: 10 µM [activator, partial curve, poor fit]"
15,COc1ccc(NC(=S)N2CCN(Cc3ccc(C)cc3)CC2)cc1,"inconclusive: 22.4 µM [inhibitor, single point]"
16,Nc1nc(NCc2ccccc2)nc(NCc2ccccc2)c1[N+](=O)[O-],inactive
17,C[C@@H]1C[C@H]2[C@@H]3C[C@H](F)C4=CC(=O)C=C[C@]4(C)[C@@]3(F)[C@@H](O)C[C@]2(C)[C@@]1(O)C(=O)COC(=O)C(C)(C)C,"inconclusive: 22.4 µM [activator, single point]"
18,O=C(Nc1ccc(O)c2c(=O)cc(-c3cccc(Cl)c3)oc12)c1ccc(F)cc1,inactive
19,O=C(CC1Sc2ncnn2C1=O)Nc1ccc(Br)cc1 (stereo not drawn),"inconclusive: 35.5 µM [inhibitor, single point]"
20,CCCS(=O)(=O)N1CCN=C1SCc1cccc(C)c1,inactive
21,O=C(NC1CCN(C(=O)NCc2ccccc2)CC1)c1ccc(F)cc1,inactive
22,CC1(C)CC(=O)C2=C(C1)N=c1s/c(=C/c3ccc(F)c(F)c3)c(=O)n1C2c1ccc(F)cc1 (stereo not drawn),"inconclusive: 5.62 µM [activator, single point]"
23,Cc1ccc(-n2nnnc2-c2cnoc2-c2cccc(F)c2)cc1,inactive
24,CCCCc1cc(=O)oc2cc(OC(C)C(=O)NCC3CCC(C(=O)O)CC3)c(Cl)cc12 (stereo not drawn),"inconclusive: 35.5 µM [inhibitor, single point]"
25,CCCCCCC1C(C#N)=C(N)OC2=C1C(=O)CC(C)(C)C2 (stereo not drawn),"inconclusive: 0.141 µM [activator, full curve, poor fit]"

row,Structure (SMILES),Potency
1,COc1ccc(Cl)cc1-c1n[nH]c(=S)n1C,"inconclusive: 14.1 µM [inhibitor, partial curve]"
2,Fc1ccccc1/C=N/Nc1nc2ccccc2o1,active: 6.31 µM
3,COc1ccc(/C=C/C(=O)OCC(=O)Nc2cccc(Oc3ccccc3)c2)c(OC)c1,"inconclusive: 15.8 µM [activator, single point]"
4,COc1ccc(-c2c(C)[nH]n3c(=O)c(Cc4ccccc4)c(C)nc23)cc1,active: 2.51 µM
5,Cc1ccc2c(c1)N(CCC(=O)NCc1cccs1)C(=O)C(C)O2 (stereo not drawn),inactive
6,O=C(O)/C=C/C(=O)NNc1ncnc2ccccc12,"inconclusive: 17.8 µM [inhibitor, single point]"
7,COC(=O)c1c(N2C(=O)CC(Sc3ccccc3C(=O)O)C2=O)sc(C)c1C (stereo not drawn),"inconclusive: 11.2 µM [inhibitor, partial curve, poor fit]"
8,CC1Sc2ccc(S(=O)(=O)N3CCN(c4ccccc4)CC3)cc2NC1=O (stereo not drawn),"inconclusive: 35.5 µM [activator, single point]"
9,CC(Oc1ccc(Br)cc1)c1nc2c3ccccc3nc(=S)n2[nH]1 (stereo not drawn),active: 0.282 µM
10,Cc1cc(-c2csc(NC(=O)c3ccc(S(=O)(=O)N(C)C)cc3)n2)c(C)n1-c1ccccc1,inactive
11,Cc1cccc(N2C(=O)CC(Sc3nccc(C)n3)C2=O)c1 (stereo not drawn),"inconclusive: 35.5 µM [inhibitor, single point]"
12,Cc1ccccc1CSc1nnc(-c2ccccn2)n1C,inactive
13,CCn1c2ccccc2c2cc(NC(=O)c3cc(OC)c(OC)c(OC)c3)ccc21,inactive
14,Cc1ccc(C(=O)N/N=C\c2cccn2C)cn1,active: 11.2 µM
15,CCOc1ccc(Cn2c(=O)oc3ccccc32)cc1,inactive
16,Cc1cc(-c2ccco2)c(C#N)c2nc3ccccc3n12,"inconclusive: 4.47 µM [activator, single point]"
17,CC(NC(=O)c1ccc(OC2CCN(S(=O)(=O)N(C)C)CC2)cc1)C1CC1 (stereo not drawn),inactive
18,Cc1ccc(C)c(OCc2cc(C(=O)N3CCN(c4ccccc4C)CC3C)no2)c1 (stereo not drawn),"inconclusive: 15.8 µM [activator, partial curve]"
19,C=CCc1c(C)nc2cc(-c3ccc(C)cc3)[nH]n2c1=O,"inconclusive: 12.6 µM [inhibitor, single point]"
20,CCOc1ccc(N(CC(=O)Nc2cccc(Br)c2)S(C)(=O)=O)cc1,"inconclusive: 17.8 µM [activator, single point]"
21,Clc1ccc2nc(-c3ccc(Br)s3)cn2c1,"inconclusive: 15.8 µM [inhibitor, single point]"
22,CCOc1ccccc1-c1nc(C(N)=O)c2[nH]c(=O)n(-c3ccc(F)cc3)c2n1,"inconclusive: 22.4 µM [inhibitor, single point]"
23,O=c1c2ccccc2nc(SCc2cc(F)cc3c2OCOC3)n1Cc1ccco1,"inconclusive: 5.62 µM [inhibitor, single point]"
24,Cc1ccccc1Cn1c(O)c(N=NC(=S)Nc2ccccc2F)c2ccccc21,active: 2.51 µM
25,CCCc1cc(=O)oc2cc(Oc3ncccn3)ccc12,"inconclusive: 12.6 µM [activator, single point]"

row,Structure (SMILES),Potency
1,COC(=O)/C=C/C(=O)Nc1ccc(O)c(Cl)c1,"inconclusive: 20 µM [inhibitor, single point]"
2,CC(=O)c1ccc(N(C(=O)Cc2c[nH]c3ccccc23)C(C(=O)NC2CCCCC2)c2cccs2)cc1 (stereo not drawn),inactive
3,CC(=O)Nc1ccccc1C(=O)C(=O)Nc1cccc(C(=O)N2CC(C)CC(C)C2)c1 (stereo not drawn),"inconclusive: 35.5 µM [activator, single point]"
4,O=C(NC(=S)N1CCN(c2ccc([N+](=O)[O-])cc2)CC1)c1ccco1,active: 0.708 µM
5,N/C(=N\c1nc2ccccc2o1)NC(=O)c1ccc([N+](=O)[O-])cc1,inactive
6,COc1ccc(/C=N/NC(=O)CCn2cnc(-c3ccccc3)c2-c2ccccc2)cc1,"inconclusive: 31.6 µM [activator, single point]"
7,O=[N+]([O-])c1ccc(-n2cc(-c3ccccc3)nn2)cc1,inactive
8,Cc1cc(NC(=O)c2ccc3c(c2)C(=O)N(c2cccc(C)c2C)C3=O)no1,"inconclusive: 20 µM [inhibitor, single point]"
9,Cc1cc(N2CCCCC2)nc2c(C)cccc12,"inconclusive: 0.562 µM [activator, full curve]"
10,Cc1[nH]nc2c1-c1nc3ccccc3nc1C(C)(C)C2,active: 3.98 µM
11,Fc1ccc(Cc2nnc(-c3cccs3)o2)cc1,"inconclusive: 11.2 µM [activator, partial curve]"
12,COc1cccc(/C=C2/Sc3ccc(C(=O)NCCCN4CCCC4)cc3NC2=O)c1,"inconclusive: 35.5 µM [inhibitor, single point]"
13,COc1ccc(-n2cc(CNC3CCN(C)CC3)c(-c3cccc(F)c3)n2)cc1,"inconclusive: 20 µM [inhibitor, single point]"
14,CCOC(=O)C1=C(c2ccccc2)NC(N)=NC1c1ccc(OCc2ccc(C(=O)OC)cc2)cc1 (stereo not drawn),inactive
15,O=C(CC(c1ccccc1)c1ccccc1)N1CCN(c2ccccn2)CC1,inactive
16,CCOc1ccc2ccccc2c1/C=N\NC(=O)c1ccc([N+](=O)[O-])cc1,"inconclusive: 22.4 µM [inhibitor, single point]"
17,CCOc1ccc(C(=O)/C=C/c2cc(OC)c(OC)c(OC)c2)cc1,"inconclusive: 35.5 µM [inhibitor, single point]"
18,O=C(Nc1ccc(Cl)cc1)Nc1cc(S(=O)(=O)N2CCOCC2)ccc1N1CCCC1,"inconclusive: 10 µM [activator, partial curve]"
19,COc1cc(CCC(=O)Nc2ccc(Cl)c(C(F)(F)F)c2)cc(OC)c1OC,inactive
20,O=C(c1ccc(COc2ccc(Cl)cc2)o1)N1N=C(C(F)F)CC1(O)C(F)F (stereo not drawn),"inconclusive: 35.5 µM [inhibitor, single point]"
21,COc1cccc(NC(=O)c2ccc(-c3ccccc3[N+](=O)[O-])o2)c1,"inconclusive: 22.4 µM [activator, single point]"
22,COC(=O)c1nc(NC(=S)NC(=O)c2cccs2)sc1C,active: 3.98 µM
23,C=COCCNC(=O)Nc1ccc(Cl)c(Cl)c1,"inconclusive: 35.5 µM [inhibitor, single point]"

# Ordered by SMILES length (smallest number first): 5 of the compounds above.
row,Structure (SMILES),Potency
15,COc1ccc(NC(=S)N2CCN(Cc3ccc(C)cc3)CC2)cc1,"inconclusive: 22.4 µM [inhibitor, single point]"
15,O=C(CC(c1ccccc1)c1ccccc1)N1CCN(c2ccccn2)CC1,inactive
13,COc1ccc(-n2cc(CNC3CCN(C)CC3)c(-c3cccc(F)c3)n2)cc1,"inconclusive: 20 µM [inhibitor, single point]"
12,COc1cccc(/C=C2/Sc3ccc(C(=O)NCCCN4CCCC4)cc3NC2=O)c1,"inconclusive: 35.5 µM [inhibitor, single point]"
6,COc1ccc(/C=N/NC(=O)CCn2cnc(-c3ccccc3)c2-c2ccccc2)cc1,"inconclusive: 31.6 µM [activator, single point]"
